PubChem BioAssay AID1159584, Peter MacCallum Cancer Centre – 2016
Assay: 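Genes whose loss is lethal only together with E-cadherin loss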 (primary screen). Cell system: human MCF10A breast epithelial cells, parental and CDH1-null. Reagents: siRNA against human genes. Detection: 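ATP luminescence (CellTiter-Glo) viability per line relative to mean mock wells over all plates, and the ratio of CDH1-null to parental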. Scale: CDH1-null / parental viability ratio: higher = CDH1-null cells survive relatively better than parental; CDH1-null viability vs mock: higher = more viable CDH1-null cells. Units: CDH1-null viability vs mock in fraction of mock.
Shown is one part, drawn at random, of about 18,000 reagents. Not all columns of the deposit are shown. Not stated in the record: the amount of reagent, the time to read-out.

PNMA8A (PNMA family member 8A): CDH1-null / parental viability ratio = 0.99; CDH1-null viability vs mock = 0.77
ERBB2 (erb-b2 receptor tyrosine kinase 2): CDH1-null / parental viability ratio = 1.11; CDH1-null viability vs mock = 0.98
OR10W1 (olfactory receptor family 10 subfamily W member 1): CDH1-null / parental viability ratio = 0.6; CDH1-null viability vs mock = 0.34
CLPS (colipase): CDH1-null / parental viability ratio = 1.45; CDH1-null viability vs mock = 0.71

Laid out differently: entries from further up.
{"gene symbol":"PNMA8A (PNMA family member 8A)","CDH1-null / parental viability ratio":0.99,"CDH1-null viability vs mock":0.77}
{"gene symbol":"ERBB2 (erb-b2 receptor tyrosine kinase 2)","CDH1-null / parental viability ratio":1.11,"CDH1-null viability vs mock":0.98}

More results:
LMO1 (LIM domain only 1): CDH1-null / parental viability ratio = 0.94; CDH1-null viability vs mock = 1
SARM1 (sterile alpha and TIR motif containing 1): CDH1-null / parental viability ratio = 0.85; CDH1-null viability vs mock = 0.35
PRPS1 (phosphoribosyl pyrophosphate synthetase 1): CDH1-null / parental viability ratio = 1.1; CDH1-null viability vs mock = 0.9
HCN1: CDH1-null / parental viability ratio = 1.11; CDH1-null viability vs mock = 0.8
TRIM51 (tripartite motif-containing 51): CDH1-null / parental viability ratio = 0.96; CDH1-null viability vs mock = 0.8
STKLD1 (serine/threonine kinase like domain containing 1): CDH1-null / parental viability ratio = 0.9; CDH1-null viability vs mock = 0.72
MYO9A (myosin IXA): CDH1-null / parental viability ratio = 0.99; CDH1-null viability vs mock = 0.7
ZNF318 (zinc finger protein 318): CDH1-null / parental viability ratio = 1.35; CDH1-null viability vs mock = 0.88
ATF6B (activating transcription factor 6 beta): CDH1-null / parental viability ratio = 0.98; CDH1-null viability vs mock = 0.84
ZNF114 (zinc finger protein 114): CDH1-null / parental viability ratio = 0.92; CDH1-null viability vs mock = 0.9
